The target in the assay is HCV E2 antigen (HCV genotype 1b) (hepatitis C virus genotype 1b). Kind of assay: inhibition ELISA with E2 of genotype 1b. On the technique in general: In an ELISA, binding on a coated surface is turned into a signal by an enzyme label.

These are yes or no findings as the source states them, for the method shown. Binding calls can cover weak binding; strength is not graded here.

B1: Fab molecule clone A8 (Fab, V domains shown)
VH: EVQLLESGPGLVKPSGTLSLTCTVSGGSIRSSHWWSWVRQPPGKGLEWIGEVFFSGSTIYNPSLNDRVFMSVDKSKDQVSLRLSSVTAADTAVYYCARSPIKMNQGRMMLDAFDIWGQGTLVIVSS
VL: AELTQSPSSLSAFVGDRVTITCRASQSISRNLNWYQQKPGTAPKVLIYAASSLQSGVPSRFSGSGSGTDFTLTITSLQPEDFATYYCQQSYTTPRTFGQGTKVEVK
In the case of B1, the binding entry was “binds”.

B2: Fab molecule clone A12 (Fab, V domains shown)
VH: EVQLLESGSEVKKPGSSVKVSCRASGGSFRSYNFNWVRQAPGQGLEWMGGIIPMFGTANYAQKFQGRVTITADESTATGYMELSSLRSEDTAVYYCAMPYPKHCSRGSCWGWFDPWGQGTLVTVSS
VL: AELTQSPGTLSLSPGERATLSCRASQSLSSKYLAWYQQKPGQAPRLFIYDASSRATGIPDRFSGSGSGTDFTLSISRLEPEDFAVYYCQQYGTPRTFGQGTKVEIK
Turning to B2, the binding result was “binds”.
